# Laboratory results taken from the supplement of paper PMC12819154, “High-throughput peptide-centric local stability assay extends protein–ligand identification to membrane proteins, tissues and bacteria” (Nature Structural & Molecular Biology, 2025).
# Protein sequences, listed by entry. Tags and fused reporters are not part of them. Lines headed by an entry give the natural chain unless they say otherwise; changes in a name come on top.
# UniProt P63151: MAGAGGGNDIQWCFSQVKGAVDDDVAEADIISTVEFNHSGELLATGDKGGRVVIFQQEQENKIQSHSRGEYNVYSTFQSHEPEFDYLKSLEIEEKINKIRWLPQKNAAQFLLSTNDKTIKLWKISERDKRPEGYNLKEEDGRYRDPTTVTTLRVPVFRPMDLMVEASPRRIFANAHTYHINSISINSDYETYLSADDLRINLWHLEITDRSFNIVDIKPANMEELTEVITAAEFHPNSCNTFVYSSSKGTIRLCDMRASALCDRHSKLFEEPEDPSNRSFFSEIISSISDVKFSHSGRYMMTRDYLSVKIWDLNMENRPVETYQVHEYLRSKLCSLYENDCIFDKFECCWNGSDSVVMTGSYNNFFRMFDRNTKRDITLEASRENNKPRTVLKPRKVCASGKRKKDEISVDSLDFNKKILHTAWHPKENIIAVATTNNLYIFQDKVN
# UniProt P61599, whole entry: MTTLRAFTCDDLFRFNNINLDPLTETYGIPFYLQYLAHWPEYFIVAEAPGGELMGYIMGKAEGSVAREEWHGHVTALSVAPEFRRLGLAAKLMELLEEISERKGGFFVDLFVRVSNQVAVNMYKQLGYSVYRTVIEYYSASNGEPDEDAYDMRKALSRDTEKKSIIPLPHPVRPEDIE
# UniProt P57723: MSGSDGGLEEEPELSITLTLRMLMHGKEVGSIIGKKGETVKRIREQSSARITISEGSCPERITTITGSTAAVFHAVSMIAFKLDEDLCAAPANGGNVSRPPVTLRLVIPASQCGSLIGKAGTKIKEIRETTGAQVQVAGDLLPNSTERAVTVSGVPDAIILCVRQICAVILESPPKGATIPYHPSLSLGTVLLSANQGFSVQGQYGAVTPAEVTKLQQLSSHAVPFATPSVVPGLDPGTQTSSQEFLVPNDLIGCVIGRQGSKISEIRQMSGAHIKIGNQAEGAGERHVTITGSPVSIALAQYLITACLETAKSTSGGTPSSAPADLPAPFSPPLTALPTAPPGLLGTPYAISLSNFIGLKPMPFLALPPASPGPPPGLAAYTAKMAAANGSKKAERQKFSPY
# UniProt P56211: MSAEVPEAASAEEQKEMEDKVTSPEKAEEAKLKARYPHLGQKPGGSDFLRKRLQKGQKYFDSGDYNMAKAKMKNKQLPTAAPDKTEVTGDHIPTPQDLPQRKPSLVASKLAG
# UniProt P78381: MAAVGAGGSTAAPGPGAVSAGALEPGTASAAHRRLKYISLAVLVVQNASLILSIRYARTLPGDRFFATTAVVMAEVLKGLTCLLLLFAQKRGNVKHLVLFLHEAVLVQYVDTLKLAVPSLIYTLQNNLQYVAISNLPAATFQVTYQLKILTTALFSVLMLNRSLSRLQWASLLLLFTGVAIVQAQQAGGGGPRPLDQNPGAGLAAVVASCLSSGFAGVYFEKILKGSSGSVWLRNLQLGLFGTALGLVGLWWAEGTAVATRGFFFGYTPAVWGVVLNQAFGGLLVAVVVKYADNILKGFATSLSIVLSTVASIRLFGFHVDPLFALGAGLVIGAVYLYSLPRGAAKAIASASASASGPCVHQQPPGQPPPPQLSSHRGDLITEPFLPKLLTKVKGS
# UniProt P55060: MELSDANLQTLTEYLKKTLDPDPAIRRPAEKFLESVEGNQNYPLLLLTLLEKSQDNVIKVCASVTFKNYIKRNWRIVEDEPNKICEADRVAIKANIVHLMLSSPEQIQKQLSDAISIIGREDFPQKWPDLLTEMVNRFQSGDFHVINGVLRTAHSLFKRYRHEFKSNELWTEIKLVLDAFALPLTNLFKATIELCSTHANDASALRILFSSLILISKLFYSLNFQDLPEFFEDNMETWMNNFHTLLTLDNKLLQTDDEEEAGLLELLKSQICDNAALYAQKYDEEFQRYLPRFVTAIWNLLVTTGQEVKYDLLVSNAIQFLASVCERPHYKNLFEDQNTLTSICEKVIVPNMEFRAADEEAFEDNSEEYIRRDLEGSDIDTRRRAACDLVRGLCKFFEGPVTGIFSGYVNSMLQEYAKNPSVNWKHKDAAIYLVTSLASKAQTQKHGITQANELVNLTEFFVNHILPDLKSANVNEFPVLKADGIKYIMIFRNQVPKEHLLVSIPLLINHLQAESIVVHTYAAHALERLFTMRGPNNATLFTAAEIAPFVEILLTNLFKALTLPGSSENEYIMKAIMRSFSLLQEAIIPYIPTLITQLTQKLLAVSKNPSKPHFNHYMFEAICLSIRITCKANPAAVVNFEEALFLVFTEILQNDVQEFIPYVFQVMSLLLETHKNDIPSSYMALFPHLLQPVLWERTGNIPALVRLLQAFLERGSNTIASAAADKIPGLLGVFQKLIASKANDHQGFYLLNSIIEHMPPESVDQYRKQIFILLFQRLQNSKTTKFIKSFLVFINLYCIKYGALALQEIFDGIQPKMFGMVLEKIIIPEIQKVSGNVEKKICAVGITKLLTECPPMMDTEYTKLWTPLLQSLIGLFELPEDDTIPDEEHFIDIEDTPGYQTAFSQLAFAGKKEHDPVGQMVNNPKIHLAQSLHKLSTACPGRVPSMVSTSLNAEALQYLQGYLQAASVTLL
# UniProt P60983, whole entry: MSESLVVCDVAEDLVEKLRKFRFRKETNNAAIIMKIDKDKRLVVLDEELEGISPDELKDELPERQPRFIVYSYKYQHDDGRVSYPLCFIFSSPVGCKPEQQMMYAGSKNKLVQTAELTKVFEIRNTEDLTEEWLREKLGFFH
# UniProt P78318: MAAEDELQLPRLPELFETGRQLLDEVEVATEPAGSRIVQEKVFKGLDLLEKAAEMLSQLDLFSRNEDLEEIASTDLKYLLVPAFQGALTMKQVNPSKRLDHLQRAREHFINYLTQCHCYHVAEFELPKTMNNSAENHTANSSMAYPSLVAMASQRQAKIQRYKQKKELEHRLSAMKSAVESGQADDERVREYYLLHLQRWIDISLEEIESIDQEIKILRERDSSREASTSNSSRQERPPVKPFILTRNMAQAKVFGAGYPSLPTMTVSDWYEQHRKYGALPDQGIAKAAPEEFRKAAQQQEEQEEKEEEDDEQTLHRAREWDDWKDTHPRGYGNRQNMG
# UniProt P56282: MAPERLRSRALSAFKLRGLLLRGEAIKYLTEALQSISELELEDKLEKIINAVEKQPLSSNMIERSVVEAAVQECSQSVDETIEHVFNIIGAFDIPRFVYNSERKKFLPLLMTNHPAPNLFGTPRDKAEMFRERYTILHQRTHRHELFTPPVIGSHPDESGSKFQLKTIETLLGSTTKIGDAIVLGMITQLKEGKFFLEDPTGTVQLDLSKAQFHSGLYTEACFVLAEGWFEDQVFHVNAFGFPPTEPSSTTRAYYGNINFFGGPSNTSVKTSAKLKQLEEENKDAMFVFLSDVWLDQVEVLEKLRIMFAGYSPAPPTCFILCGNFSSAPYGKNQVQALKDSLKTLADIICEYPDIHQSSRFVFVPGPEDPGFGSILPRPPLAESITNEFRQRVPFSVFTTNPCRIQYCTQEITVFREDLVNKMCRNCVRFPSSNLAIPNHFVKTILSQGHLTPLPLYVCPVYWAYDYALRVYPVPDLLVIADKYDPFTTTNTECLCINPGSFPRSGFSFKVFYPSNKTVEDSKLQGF
# UniProt P62995: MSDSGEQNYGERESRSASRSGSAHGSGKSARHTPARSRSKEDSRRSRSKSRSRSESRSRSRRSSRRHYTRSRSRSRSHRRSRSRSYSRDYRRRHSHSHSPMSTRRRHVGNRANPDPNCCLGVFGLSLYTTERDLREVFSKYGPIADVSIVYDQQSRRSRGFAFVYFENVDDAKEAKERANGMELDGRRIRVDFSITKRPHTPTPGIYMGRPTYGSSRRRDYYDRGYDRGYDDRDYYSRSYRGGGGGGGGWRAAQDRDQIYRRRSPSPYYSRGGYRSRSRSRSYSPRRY
# UniProt P67809, whole entry: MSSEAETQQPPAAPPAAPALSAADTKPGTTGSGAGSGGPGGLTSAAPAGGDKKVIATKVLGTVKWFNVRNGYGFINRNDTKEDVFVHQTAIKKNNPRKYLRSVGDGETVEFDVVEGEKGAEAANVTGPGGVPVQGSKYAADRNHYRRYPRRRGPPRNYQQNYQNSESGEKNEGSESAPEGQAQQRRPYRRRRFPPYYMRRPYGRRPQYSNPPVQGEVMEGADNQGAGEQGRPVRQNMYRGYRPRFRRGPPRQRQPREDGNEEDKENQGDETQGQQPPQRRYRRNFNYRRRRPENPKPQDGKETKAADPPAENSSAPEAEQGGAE
# UniProt P57764: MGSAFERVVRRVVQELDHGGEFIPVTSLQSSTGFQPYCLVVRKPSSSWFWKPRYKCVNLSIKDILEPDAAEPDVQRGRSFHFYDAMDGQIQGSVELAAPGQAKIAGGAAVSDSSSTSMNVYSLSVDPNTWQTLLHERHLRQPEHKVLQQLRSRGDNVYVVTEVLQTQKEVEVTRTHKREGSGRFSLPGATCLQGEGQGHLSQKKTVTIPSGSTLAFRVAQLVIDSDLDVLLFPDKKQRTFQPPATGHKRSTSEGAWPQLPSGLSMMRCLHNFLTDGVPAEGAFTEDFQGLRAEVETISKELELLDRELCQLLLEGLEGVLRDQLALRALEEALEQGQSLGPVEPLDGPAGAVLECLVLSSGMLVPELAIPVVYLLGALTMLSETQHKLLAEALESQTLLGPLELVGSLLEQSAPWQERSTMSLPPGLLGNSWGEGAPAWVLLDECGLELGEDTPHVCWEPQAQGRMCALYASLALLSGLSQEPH
# UniProt P80217: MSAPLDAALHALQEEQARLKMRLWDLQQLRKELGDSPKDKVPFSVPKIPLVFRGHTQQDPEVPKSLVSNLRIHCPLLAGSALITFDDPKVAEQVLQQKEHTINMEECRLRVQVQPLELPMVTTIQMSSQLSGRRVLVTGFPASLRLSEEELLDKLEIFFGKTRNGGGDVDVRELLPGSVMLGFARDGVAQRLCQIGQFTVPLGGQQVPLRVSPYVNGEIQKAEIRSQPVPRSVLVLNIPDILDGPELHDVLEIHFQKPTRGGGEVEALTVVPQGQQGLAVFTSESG
# UniProt P80723: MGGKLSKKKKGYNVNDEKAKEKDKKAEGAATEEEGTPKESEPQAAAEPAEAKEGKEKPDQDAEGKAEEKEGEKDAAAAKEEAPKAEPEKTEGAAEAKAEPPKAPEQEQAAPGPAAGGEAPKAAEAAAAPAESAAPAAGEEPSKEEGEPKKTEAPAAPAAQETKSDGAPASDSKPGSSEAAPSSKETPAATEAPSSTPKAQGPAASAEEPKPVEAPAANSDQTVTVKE
# UniProt P58546, whole entry: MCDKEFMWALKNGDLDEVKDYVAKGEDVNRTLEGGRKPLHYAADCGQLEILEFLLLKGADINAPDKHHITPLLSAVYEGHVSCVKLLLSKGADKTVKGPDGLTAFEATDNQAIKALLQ
# UniProt P54792: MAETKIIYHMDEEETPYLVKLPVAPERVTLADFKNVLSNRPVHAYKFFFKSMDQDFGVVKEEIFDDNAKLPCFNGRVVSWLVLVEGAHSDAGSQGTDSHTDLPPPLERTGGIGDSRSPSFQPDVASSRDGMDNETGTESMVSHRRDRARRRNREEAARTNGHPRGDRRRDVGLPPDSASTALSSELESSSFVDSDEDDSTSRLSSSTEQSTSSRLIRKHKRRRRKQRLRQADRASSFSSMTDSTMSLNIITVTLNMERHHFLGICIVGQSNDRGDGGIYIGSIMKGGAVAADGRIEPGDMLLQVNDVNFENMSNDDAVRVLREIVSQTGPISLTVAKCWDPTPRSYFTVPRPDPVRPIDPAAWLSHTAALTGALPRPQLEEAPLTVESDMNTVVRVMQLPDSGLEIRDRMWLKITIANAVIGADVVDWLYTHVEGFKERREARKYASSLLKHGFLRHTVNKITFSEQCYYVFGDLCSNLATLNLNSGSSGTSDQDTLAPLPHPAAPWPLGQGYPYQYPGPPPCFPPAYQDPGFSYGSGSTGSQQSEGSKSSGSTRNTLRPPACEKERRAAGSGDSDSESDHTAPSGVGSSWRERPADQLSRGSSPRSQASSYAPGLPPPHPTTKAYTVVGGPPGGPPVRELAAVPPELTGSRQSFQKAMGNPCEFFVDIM
# UniProt P62333, whole entry: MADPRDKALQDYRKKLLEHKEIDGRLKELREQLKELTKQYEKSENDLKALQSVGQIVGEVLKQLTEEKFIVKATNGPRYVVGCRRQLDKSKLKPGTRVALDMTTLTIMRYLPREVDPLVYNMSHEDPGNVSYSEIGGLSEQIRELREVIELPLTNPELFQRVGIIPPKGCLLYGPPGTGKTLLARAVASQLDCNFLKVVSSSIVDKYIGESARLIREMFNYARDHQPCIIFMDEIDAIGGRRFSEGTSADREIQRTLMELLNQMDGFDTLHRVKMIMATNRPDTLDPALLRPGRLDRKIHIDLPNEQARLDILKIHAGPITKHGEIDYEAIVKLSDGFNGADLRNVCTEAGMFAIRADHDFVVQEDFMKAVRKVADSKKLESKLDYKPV
# UniProt P62380: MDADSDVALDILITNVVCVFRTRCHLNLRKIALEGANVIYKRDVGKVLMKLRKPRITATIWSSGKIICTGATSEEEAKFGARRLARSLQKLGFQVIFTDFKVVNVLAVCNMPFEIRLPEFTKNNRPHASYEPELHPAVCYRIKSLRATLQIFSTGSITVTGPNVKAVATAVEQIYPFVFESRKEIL
# The list shows a part of the results. Most values lie at the level of the controls, where differences are scatter.
# Compound: Cc1nc(Nc2ncc(C(=O)Nc3c(C)cccc3Cl)s2)cc(N2CCN(CCO)CC2)n1 [dasatinib]
# Assay: log2 fold change of tryptic peptide abundance, ligand vs vehicle (limited proteolysis) (log2 ratio); higher = more trypsin-susceptible (destabilized)
# Details: ligand concentration: 5 uM; sample: K562 cleared lysate
row,Target,log2 fold change
1,"RWDD2B (peptide sequence: GNHMDFGQLYQFLNTK, peptide start residue: 289) (UniProt P57060)",0.383
2,"UniProt P63151 (peptide sequence: INLWHLEITDR, peptide start residue: 200)",-0.0673
3,"NAA20 (peptide sequence: EEWHGHVTALSVAPEFRR, peptide start residue: 68) (UniProt P61599)",0.11
4,"UniProt P57723 (peptide sequence: ITISEGSCPER, peptide start residue: 51)",-0.249
5,"UBXN2A (peptide sequence: KNEICLSTKPVFQPFSGQGHR, peptide start residue: 119) (UniProt P68543)",0.239
6,"ARPP19 (peptide sequence: YPHLGQKPGGSDFLRK, peptide start residue: 36) (UniProt P56211)",-0.0694
7,"SLC35A2 (peptide sequence: GDLITEPFLPK, peptide start residue: 378) (UniProt P78381)",0.107
8,"EEF1A1 (peptide sequence: EHALLAYTLGVK, peptide start residue: 135) (UniProt P68104)",0.148
9,"CSE1L (peptide sequence: ANIVHLMLSSPEQIQK, peptide start residue: 94) (UniProt P55060)",-0.198
10,"NUP107 (peptide sequence: HMNSVPQKPALIPQPTFTEK, peptide start residue: 766) (UniProt P57740)",-0.453
11,"GMFB (peptide sequence: EKLGFFH, peptide start residue: 136) (UniProt P60983)",0.308
12,"IGBP1 (peptide sequence: AAPEEFRK, peptide start residue: 288) (UniProt P78318)",0.0619
13,"MRPS11 (peptide sequence: QKVEQNAAPSHTK, peptide start residue: 47) (UniProt P82912)",0.0498
14,"POLE2 (peptide sequence: IINAVEKQPLSSNMIER, peptide start residue: 48) (UniProt P56282)",-0.291
15,"GRB2 (peptide sequence: HDGAFLIR, peptide start residue: 79) (UniProt P62993)",0.0825
16,"UniProt P62995 (peptide sequence: SRGFAFVYFENVDDAK, peptide start residue: 158)",-0.657
17,"UniProt P62875 (peptide sequence: LLNYAPLEK, peptide start residue: 59)",0.0343
18,"YBX1 (peptide sequence: FPPYYMR, peptide start residue: 193) (UniProt P67809)",-0.264
19,"UniProt P78559 (peptide sequence: GEKELSSEPQTPPAQK, peptide start residue: 494)",0.751
20,"RPL7A (peptide sequence: KTCTTVAFTQVNSEDK, peptide start residue: 197) (UniProt P62424)",-0.207
21,"GSDMD (peptide sequence: TFQPPATGHKR, peptide start residue: 239) (UniProt P57764)",0.248
22,"IFI35 (peptide sequence: EHTINMEECRLR, peptide start residue: 99) (UniProt P80217)",0.719
23,"BASP1 (peptide sequence: TEAPAAPAAQETK, peptide start residue: 151) (UniProt P80723)",0.531
24,"MTPN (peptide sequence: NGDLDEVKDYVAK, peptide start residue: 12) (UniProt P58546)",0.0934
25,"UniProt P54792 (peptide sequence: NVLSNRPVHAYK, peptide start residue: 35)",-0.804
26,"UniProt P62333 (peptide sequence: LIREMFNYAR, peptide start residue: 214)",-0.174
27,"TBPL1 (peptide sequence: IALEGANVIYKR, peptide start residue: 31) (UniProt P62380)",0.255
28,"UniProt P61923 (peptide sequence: YYDDTYPSVK, peptide start residue: 30)",-0.0594

# Quoted at random: two records from the list
row,Target,log2 fold change
26,"UniProt P62333 (peptide sequence: LIREMFNYAR, peptide start residue: 214)",-0.174
28,"UniProt P61923 (peptide sequence: YYDDTYPSVK, peptide start residue: 30)",-0.0594
